In all, about 33,000 sequences were measured (“E-score (-0.5 to 0.5)”: median about -0.0014, highest 2% from about 0.25 on). This is one part of the list.
What follows are sequences tested against T1, Cad1 (UniProt P24813) (assay: PBM E-score (8-mer binding enrichment) (E-score (-0.5 to 0.5)); higher = stronger / more preferred TF binding). Conditions: protein concentration: 100 nM; construct: GST-full length.
T1 sequence: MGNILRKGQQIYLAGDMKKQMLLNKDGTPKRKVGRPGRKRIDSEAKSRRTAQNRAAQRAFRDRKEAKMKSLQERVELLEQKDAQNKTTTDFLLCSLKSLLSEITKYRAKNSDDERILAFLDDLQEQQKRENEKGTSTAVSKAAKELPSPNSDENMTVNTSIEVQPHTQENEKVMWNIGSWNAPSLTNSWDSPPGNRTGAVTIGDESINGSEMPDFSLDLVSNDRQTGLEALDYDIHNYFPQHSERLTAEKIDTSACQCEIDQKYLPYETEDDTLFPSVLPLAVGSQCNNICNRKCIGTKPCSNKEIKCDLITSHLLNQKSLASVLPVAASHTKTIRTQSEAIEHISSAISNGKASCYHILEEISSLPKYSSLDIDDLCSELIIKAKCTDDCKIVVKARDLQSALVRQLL
In short: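 Detection of bound protein used fluorescent anti-GST, with scans normalised by masliner. The proteins were GST-tagged yeast transcription factors applied at about 100-200 nM to universal all-10-mer Agilent arrays made double-stranded by primer extension. Each ungapped eight-base word, pooled with its reverse complement, was scored with an E-score from the Universal PBM Analysis Suite.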

| Sequence | PBM E-score |
| --- | --- |
| CACGAGCA | -0.00827 |
| CGTGAGAC | 0.117 |
| GATCAACA | 0.131 |
| AATCTCGG | 0.034 |
| TCCGCAGA | 0.11 |
| ATCCGCGC | 0.181 |
| CTGCTCCC | -0.0673 |
| TCCTTAAA | -0.0154 |
| AGTACCCA | -0.126 |
| CACCCTCA | -0.0865 |
| AAAAGCTA | -0.0331 |
| ATAAAGTA | 0.157 |
| AAGTCTTG | -0.113 |
| CGGGGCTA | -0.177 |
| CTTTACTC | 0.13 |
| GGGTTTTA | -0.0872 |
| ACGCCCGG | -0.0906 |
| GACGCTAC | 0.00555 |
| ACGGAAAG | -0.0279 |
| GATGCTGA | -0.216 |
| CGGACGAG | -0.0449 |
| AATGAATA | 0.157 |
| GTACCGCA | 0.109 |
| CCAACACG | 0.0589 |
| GCCTGTCC | -0.0216 |

| Sequence | PBM E-score |
| --- | --- |
| CTTACCAA | 0.205 |
| CTATACCC | -0.0907 |
| TGTCACAA | 0.235 |
| ACTAACCT | 0.0575 |
| ATGAAGCC | 0.064 |
| CACCTAGC | -0.248 |
| GTGATATA | 0.0139 |
| ACTGAGTC | 0.0353 |
| TCTTCACA | -0.00024 |
| CGCACAAC | -0.0468 |
| ATCTCCGA | 0.151 |
| ATCCCGGG | 0.146 |
| CCGAGTAG | 0.0935 |
| CAGCTGAA | 0.0173 |
| GGCCGCGA | 0.0232 |
| AGGAATTG | 0.0938 |
| ACAACAGT | 0.0838 |
| AACGGCAT | 0.128 |
| CAGATGAC | -0.154 |
| CTCAGCGC | 0.0582 |
| GACTTACC | -0.142 |
| GGGGGGTA | -0.46 |
| AACAATTG | 0.0478 |
| ACTCAAAC | 0.0288 |
| GGCCCCCA | -0.385 |

| Sequence | PBM E-score |
| --- | --- |
| CTACTAGC | 0.0785 |
| ACGACCCC | -0.0856 |
| GATATATC | 0.211 |
| ACTGAGTA | 0.0662 |
| CTGGAATA | 0.0836 |
| GTCCACAC | 0.128 |
| AACTACGC | -0.046 |
| AAGACCAG | -0.169 |
| GTAGCAAC | -0.0716 |
| CACGTTGG | -0.00928 |
| ACGGCGCG | 0.322 |
| ATAGCCGC | 0.0298 |
| CGTCGACC | 0.118 |
| ACTCCATA | -0.191 |
| CACCGCAG | -0.0791 |
| CGTTTAGA | 0.113 |
| GAGCGCCA | -0.0152 |
| GTCACCCA | -0.0308 |
| CTTACACA | 0.0675 |
| AACAGGCA | -0.0352 |
| ACACCCGG | -0.0646 |
| AGTTGCAT | 0.0768 |
| GCCGGAAC | -0.0106 |
| ACATTTCA | 0.105 |
| ATAGTTCA | 0.0339 |

| Sequence | PBM E-score |
| --- | --- |
| AATCCCGA | 0.101 |
| ATAATGCA | 0.0116 |
| CGCAGCAC | 0.0114 |
| AGAGCATA | -0.162 |
| AATATGGG | -0.0935 |
| CTTGCTCA | -0.185 |
| ACATACAT | 0.11 |
| ACAGCAAA | 0.107 |
| CGTGGAAA | 0.0874 |
| ATTCTTGC | -0.00905 |
| GCTCGGAC | 0.0173 |
| CGTCTGCC | -0.0942 |
| CCCATGGG | 0.0163 |
| GCAGGTAC | -0.316 |
| ACCATGGG | -0.198 |
| GTATACTA | -0.146 |
| GCCGCAAA | 0.176 |
| TATTAGAA | 0.24 |
| ACCCTAAA | 0.0825 |
| AGGAAAAA | 0.0617 |
| CGTAATGC | 0.0737 |
| TCAAGAAA | 0.244 |
| AATACCTA | 0.168 |
| AGAAGCAT | -0.134 |
| ATTCGATA | 0.0458 |

| Sequence | PBM E-score |
| --- | --- |
| GGAAAAAA | 0.0423 |
| CAAGACGC | -0.0382 |
| CACCAAGG | -0.0865 |
| GAGAAAAA | 0.125 |
| TCCGGTAA | 0.102 |
| ATGCTACC | -0.0565 |
| AAAGCGAT | 0.182 |
| CGCTACAG | -0.0564 |
| ATATCGAA | 0.187 |
| AAGAAAAC | 0.0993 |
| ATACGGAC | -0.0428 |
| ACGATCTC | 0.00327 |
| AAGGTTCT | -0.0896 |
| CTATGTCC | -0.143 |
| CCTGGTTC | -0.0941 |
| CCGTGAAC | -0.0127 |
| CGATTTTA | 0.136 |
| ACCCACAG | -0.113 |
| CGCGAATA | 0.145 |
| CAGAAATC | 0.0998 |
| CAGACGTC | 0.00703 |
| ACACACCG | -0.00219 |
| ATCAAGTC | -0.0562 |
| AGTCTCTG | -0.137 |
| CAGCGGGA | -0.0349 |

| Sequence | PBM E-score |
| --- | --- |
| AGAAAATC | -0.0518 |
| AGATCGAT | 0.218 |
| ACGATTTC | 0.127 |
| AAAAAGGA | -0.108 |
| TGTTAAAA | 0.0663 |
| CCTGAAGC | -0.285 |
| ATATTAAA | 0.385 |
| CGGTACCA | -0.0413 |
| CTTTACGA | -0.137 |
| CGAAGTAG | 0.154 |
| ACGCAGGC | -0.132 |
| AAGTCCTG | -0.138 |
| TAAGGTGA | -0.0279 |
| ACGTTAGC | 0.229 |
| ATGTACTG | -0.0182 |
| CAGTAAAC | 0.0334 |
| CCTAGGCA | -0.0995 |
| ATTAATAC | 0.199 |
| ACAACGAC | 0.0374 |
| GAGGCCTC | -0.203 |
| ACGGCTCC | -0.0818 |
| CTCAGGTA | 0.0682 |
| ATTGCGAC | 0.0407 |
| CACTTCTC | -0.218 |
| GCGGTGGA | -0.0242 |

In a second layout: entries from further up.
Sequence	PBM E-score
GTCCACAC	0.128
AACTACGC	-0.046
AAGACCAG	-0.169
GTAGCAAC	-0.0716
CACGTTGG	-0.00928
ACGGCGCG	0.322
ATAGCCGC	0.0298
CGTCGACC	0.118
ACTCCATA	-0.191
CACCGCAG	-0.0791
CGTTTAGA	0.113
GAGCGCCA	-0.0152
GTCACCCA	-0.0308
CTTACACA	0.0675
AACAGGCA	-0.0352
ACACCCGG	-0.0646
AGTTGCAT	0.0768
GCCGGAAC	-0.0106
ACATTTCA	0.105
ATAGTTCA	0.0339
AATCCCGA	0.101
ATAATGCA	0.0116
CGCAGCAC	0.0114
AGAGCATA	-0.162
AATATGGG	-0.0935
CTTGCTCA	-0.185
ACATACAT	0.11
ACAGCAAA	0.107
CGTGGAAA	0.0874
ATTCTTGC	-0.00905
GCTCGGAC	0.0173
CGTCTGCC	-0.0942
CCCATGGG	0.0163
GCAGGTAC	-0.316
ACCATGGG	-0.198
GTATACTA	-0.146

Not a retest: an excerpt of the list.

| Sequence | PBM E-score |
| --- | --- |
| CTTTACTC | 0.13 |
| GGGTTTTA | -0.0872 |
| ACGCCCGG | -0.0906 |
| GACGCTAC | 0.00555 |
| ACGGAAAG | -0.0279 |

Next part

| Sequence | PBM E-score |
| --- | --- |
| AGGCGGAT | 0.0121 |
| CCTTACTC | -0.0289 |
| CGAGTGCA | 0.122 |
| AGCTTATC | 0.0337 |
| CTCCCGAG | -0.128 |
| CGGCTGAG | -0.117 |
| GCATGTAC | -0.0209 |
| CTCGTAAG | 0.264 |
| CATAGCAA | 0.0676 |
| GGTGAGCA | -0.146 |
| ATGGTTTG | 0.0111 |
| GATTCCCC | -0.193 |
| AACTGTTG | -0.108 |
| GAAGTCGA | 0.138 |
| AGCCAAGC | -0.181 |
| GCTCTCAA | 0.00709 |
| ATAGCAGA | 0.0493 |
| AAGCCGCA | 0.021 |
| CAAAACAG | 0.0402 |
| GAAAGGCC | -0.0684 |
| GGGAACCA | -0.227 |
| CTGGTACA | 0.082 |
